According to PubChem BioAssay AID338 (DTP/NCI, 2004):
The list shows only some results of the screen, not a fair sample: it is rich in T/C values a quarter to a half above the control, in often repeated tests (any T/C) and in doses without a T/C. Other doses and runs of a compound stand elsewhere. T/C gives the treated animals as a percentage of the vehicle group. Some entries give survivors of the animals treated and no T/C: the source files T/C as zero there, which appears to mark a toxic dose or a test without result, not a measured value. Some survivor counts are full or nearly so, which does not show that the dose was tolerated: the source hardly ever lists a survival T/C far under the control, and the zero likely stands for such cases as well. Counts of survivors are from the toxicity check (mostly the fifth day) where no day follows; animals may have died later. Schedules are NCI's codes, read here as Q, the interval in days (D) or hours (H), X, the number of doses. Some schedule codes hold Z or #, which are not explained here. Some entries hold several experiments; the values are given in rising order. Some molecules as drawn cover several salts, stereoisomers or complexes of the source; a dose is that of the sample tested. For survival time, this PubChem deposit counts one and a half times the control or more as active, and values a quarter to a half above the control carry no call in these data; other NCI protocols may use other cut-offs. Brackets with × count equal records among those shown.

Test system: BDF1 mice, P388 leukemia (terephthalanilide-resistant), survival T/C
Assay: NCI In Vivo Anticancer Drug Screen. Data for tumor model P388 Leukemia resistant to A Terephthalanilide; NSC 38280 (intraperitoneal) in B6D2F1 (BDF1) mice
Conditions: T/C endpoint: median survival time, higher T/C = longer survival
Description: The antitumor activity of compounds was measured in mice bearing transplantable tumors. Survival or tumor size were measured and the results are expressed as the measurement made in the treated group (T) divided by the measurement made in the vehicle treated control group (C). The tumor model used in this assay is P388 Leukemia resistant to A Terephthalanilide; NSC 38280 (intraperitoneal) in B6D2F1 (BDF1) mice

[1] = dose: 6.25 mg/kg/injection, schedule: Q01DX010 (ip), vehicle: saline
[2] = dose: 0.5 mg/kg/injection, schedule: Q01DX010 (ip), vehicle: saline
[3] = dose: 62.5 mg/kg/injection, schedule: Q01DX010 (ip), vehicle: saline
[4] = dose: 125.0 mg/kg/injection, schedule: Q01DX010 (ip), vehicle: saline
[5] = dose: 128.0 mg/kg/injection, schedule: Q01DX010 (ip), vehicle: saline
[6] = dose: 25.0 mg/kg/injection, schedule: Q01DX010 (ip), vehicle: saline
[7] = dose: 40.0 mg/kg/injection, schedule: Q01DX010 (ip), vehicle: saline
[8] = dose: 5.0 mg/kg/injection, schedule: Q01DX010 (ip), vehicle: saline
[9] = dose: 10.0 mg/kg/injection, schedule: Q01DX010 (ip), vehicle: saline
[10] = dose: 32.0 mg/kg/injection, schedule: Q01DX010 (ip), vehicle: saline
[11] = dose: 50.0 mg/kg/injection, schedule: Q01DX010 (sc), vehicle: steroid suspending solution
[12] = dose: 80.0 mg/kg/injection, schedule: Q01DX010 (ip), vehicle: saline

For C[C@H]1C(=O)O[C@@H]2CCN3CC=C(COC(=O)[C@](C)(O)[C@@]1(C)O)[C@H]23, the survivor count [1] was 6 of 6.

With C1CN1c1nc(N2CC2)nc(N2CC2)n1 the T/C [2] was 135 % of control and the survivor count (dose: 1.0 mg/kg/injection, schedule: Q01DX010 (ip), vehicle: saline) was 6 of 6.

For O=c1cn[nH]c(=O)[nH]1, the survivor count [3] was 6 of 6, the survivor count [4] was 6 of 6 and the survivor count (dose: 500.0 mg/kg/injection, schedule: Q01DX010 (ip), vehicle: saline) was 6 of 6.

With [I][Hg][CH2]C1COC([CH2][Hg][I])CO1 (stereo unspecified) the survivor count [1] was 6 of 6.

OCC1OC(n2cnc3c(Cl)ncnc32)C(O)C1O (stereo unspecified) was tested, and the survivor count [3] was 6 of 6 and the survivor count [4] was 6 of 6.

c1ccc(CNc2ncnc3[nH]ncc23)cc1 was tested, and the survivor count (dose: 8.0 mg/kg/injection, schedule: Q01DX010 (ip), vehicle: saline) was 6 of 6.

With CCCCn1cnc2c(=S)nc[nH]c21 the survivor count (dose: 64.0 mg/kg/injection, schedule: Q01DX010 (ip), vehicle: saline) was 6 of 6 and the survivor count [5] was 6 of 6.

With N=[N+]=CC(=O)OCC(N)C(=O)O (stereo unspecified) the T/C (dose: 3.13 mg/kg/injection, schedule: Q01DX010 (ip), vehicle: saline) was 130 and 133 % of control, the T/C [1] was 144 and 145 % of control and the survivor count [6] was 5 of 6.

With C[C@@H]1C[C@@H]([C@H](O)CC2CC(=O)NC(=O)C2)C(=O)[C@@H](C)C1 the T/C [7] was 125 % of control.

CCn1cnc2c(=S)nc[nH]c21 was tested, and the T/C [4] was 133 % of control.

In the case of NC(Cc1ccc(N(CCCl)CCCl)cc1)C(=O)O (stereo unspecified), the T/C (dose: 1.25 mg/kg/injection, schedule: Q01DX010 (ip), vehicle: saline) is reported as 140 % of control, the T/C (dose: 2.5 mg/kg/injection, schedule: Q01DX010 (ip), vehicle: saline) is reported as 140 % of control and the survivor count [8] is reported as 6 of 6. The survivor count (dose: 8.0 mg/kg/injection, schedule: Q01DX010 (ip), vehicle: other) was 6 of 6, the survivor count [9] was 6 of 6 and the survivor count (dose: 16.0 mg/kg/injection, schedule: Q01DX010 (ip), vehicle: other) was 6 of 6.

Nc1nc(SCc2ccccc2)c2[nH]cnc2n1 was tested, and the T/C [10] was 133 % of control.

With Nc1nc(=S)c2[nH]cnc2[nH]1 the T/C [8] was 131 and 143 % of control and the T/C [9] was 125 % of control.

C[n+]1c2ccccc2nc2c(N)cc(N)cc21 was tested, and the survivor count [7] was 0 of 6.

With CC/C(=C(/CC)c1ccc(O)cc1)c1ccc(O)cc1 the survivor count (dose: 25.0 mg/kg/injection, schedule: Q01DX010 (sc), vehicle: steroid suspending solution) was 6 of 6, the survivor count [11] was 6 of 6 and the survivor count (dose: 100.0 mg/kg/injection, schedule: Q01DX010 (sc), vehicle: steroid suspending solution) was 6 of 6.

For CN(C)CC(=O)c1ccc(O)c(O)c1, the survivor count (dose: 675.0 mg/kg/injection, schedule: Q01DX010 (ip), vehicle: saline) was 0 of 6.

C[C@]12C=CC(=O)C=C1CC[C@@H]1[C@@H]2C(=O)C[C@@]2(C)[C@H]1CC[C@]2(O)C(=O)CO was tested, and the survivor count (dose: 12.5 mg/kg/injection, schedule: Q01DX010 (sc), vehicle: steroid suspending solution) was 6 of 6, the survivor count [11] was 6 of 6 and the survivor count (dose: 100.0 mg/kg/injection, schedule: Q01DX Z (sc), vehicle: steroid suspending solution) was 6 of 6. For the same compound, the survivor count (dose: 200.0 mg/kg/injection, schedule: Q01DX Z (sc), vehicle: steroid suspending solution) was 5 of 6 and 6 of 6.

For CCCSc1ncnc2nc[nH]c12, the T/C [4] was 125 % of control and the T/C (dose: 250.0 mg/kg/injection, schedule: Q01DX010 (ip), vehicle: saline) was 131 % of control.

For CC1CCOS(=O)O1 (stereo unspecified), the survivor count [12] was 6 of 6.

For O=c1cnn(C2OC(CO)C(O)C2O)c(=O)[nH]1 (stereo unspecified), the T/C (dose: 200.0 mg/kg/injection, schedule: Q01DX010 (ip), vehicle: saline) was 125 % of control and the T/C (dose: 400.0 mg/kg/injection, schedule: Q01DX010 (ip), vehicle: saline) was 135 % of control.

Nc1cc(C(=O)Nc2ccc(C3=NCCN3)cc2)cc(C(=O)Nc2ccc(C3=NCCN3)cc2)c1 was tested, and the T/C [10] was 133 % of control and the survivor count [5] was 2 of 6.

In the case of O=C(Nc1ccc(NC2=NCCN2)cc1)c1ccc(C(=O)Nc2ccc(NC3=NCCN3)cc2)cc1, the T/C (dose: 4.0 mg/kg/injection, schedule: Q01DX010 (ip), vehicle: saline) is reported as 125 % of control and the T/C (dose: 16.0 mg/kg/injection, schedule: Q01DX010 (ip), vehicle: saline) is reported as 137 % of control (2×).

With S=P(N1CCOCC1)(N1CC1)N1CC1 the T/C [9] was 126 and 127 % of control and the T/C (dose: 20.0 mg/kg/injection, schedule: Q01DX010 (ip), vehicle: saline) was 127 and 136 % of control.

O=C1C(NC(=O)C2CCCCC2)=C(N2CC2)C(=O)C(NC(=O)C2CCCCC2)=C1N1CC1 was tested, and the survivor count [6] was 6 of 6, the survivor count (dose: 50.0 mg/kg/injection, schedule: Q01DX010 (ip), vehicle: saline) was 6 of 6 and the survivor count (dose: 100.0 mg/kg/injection, schedule: Q01DX010 (ip), vehicle: saline) was 6 of 6.

O=C(Nc1cccc(C(=O)Nc2ccc(C3=NCCN3)cc2)c1)c1ccc(C2=NCCN2)cc1 was tested, and the T/C (dose: 54.0 mg/kg/injection, schedule: Q01DX010 (ip), vehicle: saline) was 145 % of control, the survivor count [12] was 1 of 6 and the survivor count (dose: 120.0 mg/kg/injection, schedule: Q01DX010 (ip), vehicle: saline) was 0 of 6. For the same compound, the survivor count (dose: 180.0 mg/kg/injection, schedule: Q01DX010 (ip), vehicle: saline) was 0 of 6.

CC[C@]1(O)C[C@H]2CN(CCc3c([nH]c4ccccc34)[C@@](C(=O)OC)(c3cc4c(cc3OC)N(C=O)[C@H]3[C@@](O)(C(=O)OC)[C@H](OC(C)=O)[C@]5(CC)C=CCN6CC[C@]43[C@@H]65)C2)C1 was tested, and the survivor count [2] was 6 of 6.

With CN(N=O)C(N)=O the T/C [9] was 131 % of control and the survivor count [7] was 6 of 6.
